Reference: PubChem BioAssay AID743448 (Peter MacCallum Cancer Centre, 2014)

Test: 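Test whether knock-downs sensitising to vorinostat hold across several colon lines but not etoposide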 (follow-up of hits)
Cell system: four human colon cancer cell lines: HCT116-VR (vorinostat-resistant HCT116 derivative), SW480, SW620 and LIM1215
Reagent: siRNA pool against human genes, 40 nM siRNA pool
Time to read-out: drug added two days after transfection, read one day later
Conditions: vorinostat 2.5 µM on one half of each plate, etoposide 5 µM on the other half
Cell line and drug panel: vorinostat-resistant HCT116 cells with vorinostat
Detection: 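Caspase 3/7 activity by luminescence and live-cell viability by fluorescence, each given as a ratio to mock-transfected wells and as a robust z-score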
Scale: caspase ratio to mock: higher = more caspase activity than mock; viability ratio to mock: higher = more live cells than mock
Hit rule: 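Hit means caspase ratio to mock at least 1.6, or viability ratio to mock at most 0.75; wells with strong death in the absence of drug get no call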
Meaning of the calls: active = caspase or viability hit in this panel; inactive = no change, or unhealthy well
This is an unselected part of the 106 reagents, in one setting of the screen. 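Calls are per line and drug panel including etoposide, not vorinostat-specific; gene picks needed hits in two or more extra lines with vorinostat versus etoposide.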 A number with no mark means an inactive call. Not all columns of the deposit are shown.

Against CNOT1 the deposit lists caspase ratio to mock 6.02 (active); viability ratio to mock 0.97.
Depletion of SCRT2 gave: caspase ratio to mock 2.02 (active); viability ratio to mock 1.
With knock-down of TGM5, the record shows caspase ratio to mock 1.73 (active); viability ratio to mock 1.08.
POLR2K scored caspase ratio to mock 2.54 (active); viability ratio to mock 0.74.
Silencing of RLN3 gave: caspase ratio to mock 1.44; viability ratio to mock 1.01.
NUP133 scored caspase ratio to mock 3.26 (active); viability ratio to mock 0.8.
With knock-down of LAD1 the results were caspase ratio to mock 2.42 (active); viability ratio to mock 1.06.
INTS6L scored caspase ratio to mock 2.2 (active); viability ratio to mock 1.04.
Silencing of OR6T1 gave: caspase ratio to mock 1.62 (active); viability ratio to mock 0.88.
Against PUF60, the values are caspase ratio to mock 4.86 (active); viability ratio to mock 0.81.
For POLR2J, the entry reads caspase ratio to mock 2.62 (active); viability ratio to mock 0.85.
Against CDK10, the entry reads caspase ratio to mock 2.48 (active); viability ratio to mock 1.16.
After knock-down of RERE, the record shows caspase ratio to mock 2.24 (active); viability ratio to mock 1.03.
Against POLR2G, the values are caspase ratio to mock 3.18 (active); viability ratio to mock 0.76.
OSBPL6 showed caspase ratio to mock 1.7 (active); viability ratio to mock 1.04.
POLR2I showed caspase ratio to mock 2.56 (active); viability ratio to mock 0.74.
Against THAP3, the values are caspase ratio to mock 1.57; viability ratio to mock 0.84.
Silencing of EIF4A1 came out at: caspase ratio to mock 0.98; viability ratio to mock 0.93.
CCNK showed caspase ratio to mock 2.38 (active); viability ratio to mock 1.

Ordered by “viability ratio to mock” (descending): some entries from above.
CCNK: caspase ratio to mock = 2.38 (active); viability ratio to mock = 1
EIF4A1: caspase ratio to mock = 0.98; viability ratio to mock = 0.93
